Test results reported in PMC5788916, “The SAM domain of mouse SAMHD1 is critical for its activation and regulation” (Nature Communications, 2018).
No constants are given. Whether binding was seen depends on the method and setting.

Biological target: mouse SAMHD1 HD domain, isoform 1 (residues 145-658) (mouse) (UniProt Q60710)
Assay: condition: only in the absence of allosteric nucleotides; SEC; Superdex 200 10/300 GL; 2 mg/ml, 200 ul; 50 mM Tris-HCl pH 8.0, 150 mM NaCl, 5 mM MgCl2, 0.5 mM TCEP; no nucleotides added; both purified

B1: mouse SAMHD1 HD domain, isoform 1 (residues 145-658) (domain or fragment, UniProt Q60710 145-658, looked up)
chain: DLMKVFNDPIHGHIEFHPLLIRIIDTPQFQRLRYIKQLGGGYYVFPGASHNRFEHSLGVGYLAGCLVRALAEKQPELQISERDILCVQIAGLCHDLGHGPFSHMFDGRFIPRARPEKKWKHEQGSIEMFEHLVNSNELKLVMKNYGLVPEEDITFIKEQIMGPPITPVKDSLWPYKGRPATKSFLYEIVSNKRNGIDVDKWDYFARDCHHLGIQNNFDYKRFIKFARICEVEYKVKEDKTYIRKVKHICSREKEVGNLYDMFHTRNCLHRRAYQHKISNLIDIMITDAFLKADPYVEITGTAGKKFRISTAIDDMEAFTKLTDNIFLEVLHSTDPQLSEAQSILRNIECRNLYKYLGETQPKREKIRKEEYERLPQEVAKAKPEKAPDVELKAEDFIVDVINVDYGMEDKNPIDRVHFYCKSNSKQAVRINKEQVSQLLPEKFAEQLIRVYCKKKDGKSLDAAGKHFVQWCALRDFTKPQDGDIIAPLITPLKWNNKTSSCLQEVSKVKTCLKF
notes: mouse SAMHD1 isoform 1, HD domain without the SAM domain, residues 145-658; The text speaks of 'mHD' and gives limits for both isoforms; source: E. coli BL21 (DE3), purified (Ni-NTA, size-exclusion chromatography)
**Q.** Which binding does the source give for B1 here?
**A.** no binding
